For 3 molecules, binding results are on record in article PMC11489178.

These are yes or no findings as the source states them, for the method shown. In cells and extracts the contact can be indirect. Some entries that bind do so weakly or less than the wild type. For part of these data: Tags and fused reporters may be left off the sequences shown.

Conditions in all cases: remark: other sources report otherwise
Test [1] has as its target T1, ATP5A1 (endogenous) (human (endogenous in MNNG/HOS)), P25705.
T1 chain: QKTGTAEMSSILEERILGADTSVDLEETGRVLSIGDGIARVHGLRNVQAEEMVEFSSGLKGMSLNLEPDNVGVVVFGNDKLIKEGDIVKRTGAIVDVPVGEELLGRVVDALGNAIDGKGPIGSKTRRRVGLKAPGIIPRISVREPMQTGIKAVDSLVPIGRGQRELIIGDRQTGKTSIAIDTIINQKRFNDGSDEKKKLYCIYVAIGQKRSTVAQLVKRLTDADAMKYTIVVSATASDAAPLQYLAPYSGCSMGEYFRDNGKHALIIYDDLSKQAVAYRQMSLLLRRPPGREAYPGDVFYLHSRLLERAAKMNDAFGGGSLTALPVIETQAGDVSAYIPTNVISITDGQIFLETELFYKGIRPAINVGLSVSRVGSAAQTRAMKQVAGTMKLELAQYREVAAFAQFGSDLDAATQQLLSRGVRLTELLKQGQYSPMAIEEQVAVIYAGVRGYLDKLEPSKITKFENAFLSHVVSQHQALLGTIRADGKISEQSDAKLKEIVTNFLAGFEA
Kind of test: co-IP; endogenous proteins, MNNG/HOS cells lysed in IP buffer (Beyotime); IP with anti-HSPD1 or anti-ATP5A1 antibody, normal IgG as negative control; protein A/G plus agarose beads; Western blot. In general terms: A western blot detects proteins with antibodies after separation by electrophoresis.

Test [2] concerns the target HSPD1 (endogenous) (human (endogenous in MNNG/HOS)), P10809. Described as above.
A further test has as its target Flag-HSPD1, P10809. Kind of test: co-IP; HEK-293T cells transfected with Flag-HSPD1 and HA-ATP5A1 plasmids; IP, protein A/G plus agarose beads; Western blot.

B1: HSPD1 (endogenous), P10809 27-573 (protein)
chain: AKDVKFGADARALMLQGVDLLADAVAVTMGPKGRTVIIEQSWGSPKVTKDGVTVAKSIDLKDKYKNIGAKLVQDVANNTNEEAGDGTTTATVLARSIAKEGFEKISKGANPVEIRRGVMLAVDAVIAELKKQSKPVTTPEEIAQVATISANGDKEIGNIISDAMKKVGRKGVITVKDGKTLNDELEIIEGMKFDRGYISPYFINTSKGQKCEFQDAYVLLSEKKISSIQSIVPALEIANAHRKPLVIIAEDVDGEALSTLVLNRLKVGLQVVAVKAPGFGDNRKNQLKDMAIATGGAVFGEEGLTLNLEDVQPHDLGKVGEVIVTKDDAMLLKGKGDKAQIEKRIQEIIEQLDVTTSEYEKEKLNERLAKLSDGVAVLKVGGTSDVEVNEKKDRVTDALNATRAAVEEGIVLGGGCALLRCIPALDSLTPANEDQKIGIEIIKRTLKIPAMTIAKNAGVEGSLIVEKIMQSSSEVGYDAMAGDFVNMVEKGIIDPTKVVRTALLDAAGVASLLTTAEVVVTEIPKEEKDPGMGAMGGMGGGMGGGMF
For the molecule B1, in test [1], the binding entry is reported as “binds”.

B2: ATP5A1 (endogenous), P25705 44-553 (protein)
chain: T1 chain
B2: the binding result in test [2] is recorded as “binds”.

B3: HA-ATP5A1, P25705 44-553 (protein)
chain: T1 chain
Take B3: in the test with Flag-HSPD1, P10809, the binding result was “binds”.
